“And” between values parts separate entries of the source, which are not always exact repeats. Identical values can stand only once. Like-named read-outs stand apart in the source and are kept apart here. This continues a long series; more values of the same kind are listed elsewhere. Numbered stars: 1 amine (or outer) side, 2 acyl side, 3 side chain; on linkers, the order of the positions; unused ones are H or OH. Square brackets hold non-standard residues; d marks the D form. Peptide text beside a SMILES is read from it. NMeTrp(1-(4-Br-benzyl)) = CN[C@@H](Cc1cn(Cc2ccc(Br)cc2)c2ccccc12)C(=O)O; X3 = CCn1cc(C[C@@H](C(=O)[*:2])N(C)[*:1])c2ccccc21; Butanoyl(2R-oxy,4-CN) = N#CCC[C@@H](O)C(=O)O; Abu(4,4,4-F3) = N[C@@H](CC(F)(F)F)C(=O)O; NMeL = CN[C@@H](CC(C)C)C(=O)O; NMeA = CN[C@@H](C)C(=O)O
How the values were obtained:
Sec61 = molecular target: T1, Sec61 (Homo sapiens, UniProt P61619); assay type: cell-based
T1 construct: endogenous in cells

By UniProt entry, the sequences of proteins in these tests, tags left out.
UniProt P61619, whole entry: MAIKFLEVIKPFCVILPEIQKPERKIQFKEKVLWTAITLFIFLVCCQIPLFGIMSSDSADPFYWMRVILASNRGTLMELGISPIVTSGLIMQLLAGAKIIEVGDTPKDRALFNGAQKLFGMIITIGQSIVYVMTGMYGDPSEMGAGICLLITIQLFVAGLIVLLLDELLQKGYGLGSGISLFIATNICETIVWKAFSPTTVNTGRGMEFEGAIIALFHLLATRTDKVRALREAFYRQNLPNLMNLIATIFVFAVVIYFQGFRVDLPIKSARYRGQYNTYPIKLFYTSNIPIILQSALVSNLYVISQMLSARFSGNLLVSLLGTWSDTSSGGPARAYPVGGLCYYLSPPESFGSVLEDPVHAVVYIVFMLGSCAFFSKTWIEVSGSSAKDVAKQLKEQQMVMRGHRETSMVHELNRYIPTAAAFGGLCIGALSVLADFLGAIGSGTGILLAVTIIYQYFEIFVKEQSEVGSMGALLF

[1] = test system: collagen antibody-induced arthritis in BALB/c mice; test: Anticollagen antibody-induced arthritis model, clinical scores; assay type: in vivo, mouse; details: individual mice

## CC(C)C[C@@H]1NC(=O)[C@H](Cc2cn(Cc3ccc(Br)cc3)c3ccccc23)N(C)C(=O)[C@H](CC(F)(F)F)NC(=O)[C@H](CC(C)C)N(C)C(=O)[C@H](CC(F)(F)F)NC(=O)[C@@H](CCC#N)OC(=O)[C@H](C)N(C)C1=O [KZR-0508445] (cyclo(L[NMeA][Butanoyl(2R-oxy,4-CN)][Abu(4,4,4-F3)][NMeL][Abu(4,4,4-F3)][NMeTrp(1-(4-Br-benzyl))]))
Sec61; HER3, Concentration 1.6
  GLuc reporter raw signal (replicates): 2805900 and 2941000 and 2889300
Sec61; HER3, Concentration 8
  GLuc reporter raw signal (replicates): 2693200
Sec61; IL2, Concentration 1.6
  GLuc reporter raw signal (replicates): 2677000 and 2450100 and 2546300
Sec61; PD1, Concentration 1.6
  GLuc reporter raw signal (replicates): 1024000 and 1048400 and 1028000
Sec61; Prolactin, Concentration 1.6
  GLuc reporter raw signal (replicates): 9456300 and 9631100 and 9495900
Sec61; Prolactin, Concentration 8
  GLuc reporter raw signal (replicates): 9284600 and 9316800 and 9151200
Sec61; TNFa, Concentration 1.6
  GLuc reporter raw signal (replicates): 181080 and 186140 and 191280
Sec61; TNFa, Concentration 8
  GLuc reporter raw signal (replicates): 176140

## CC(C)C[C@@H]1NC(=O)[C@H](Cc2cn(Cc3ccc(Br)cc3)c3ccccc23)N(C)C(=O)[C@H](CC(F)(F)F)NC(=O)[C@H](CC(C)C)N(C)C(=O)[C@H](CC(F)(F)F)NC(=O)[C@@H](CCC#N)OC(=O)[C@H](C)N(C)C1=O [KZR-508445] (cyclo(L[NMeA][Butanoyl(2R-oxy,4-CN)][Abu(4,4,4-F3)][NMeL][Abu(4,4,4-F3)][NMeTrp(1-(4-Br-benzyl))]))
[1]; 2.5 mg/kg IV QODx3, day 4
  Clinical score: 1 (6×) and 2 (4×)
[1]; 2.5 mg/kg IV QODx3, day 5
  Clinical score: 3 (3×) and 2 (2×) and 4 (5×)
[1]; 2.5 mg/kg IV QODx3, day 6
  Clinical score: 4 (3×) and 6 (4×) and 3 and 7 (2×)
[1]; 2.5 mg/kg IV QODx3, day 7
  Clinical score: 7 (3×) and 5 and 4 and 9 (2×) and 6 (2×) and 10
[1]; 2.5 mg/kg IV QODx3, day 10
  Clinical score: 10 and 7 (3×) and 9 (2×) and 5 and 11 (2×) and 12
[1]; 2.5 mg/kg IV QODx3, day 11
  Clinical score: 11 (3×) and 7 (2×) and 10 and 5 and 12 and 9 and 8
[1]; 2.5 mg/kg IV QODx3, day 12
  Clinical score: 11 (4×) and 6 and 4 and 12 and 9 and 8 and 7
[1]; 5 mg/kg IV QODx3, day 4
  Clinical score: 3 and 2 (5×) and 1 (4×)
[1]; 5 mg/kg IV QODx3, day 5
  Clinical score: 5 and 2 (5×) and 3 (4×)
[1]; 5 mg/kg IV QODx3, day 6
  Clinical score: 6 (2×) and 3 (3×) and 5 (2×) and 4 (3×)
[1]; 5 mg/kg IV QODx3, day 7
  Clinical score: 9 and 5 (3×) and 6 (3×) and 4 (2×) and 8
[1]; 5 mg/kg IV QODx3, day 10
  Clinical score: 12 and 6 and 9 (2×) and 5 (3×) and 8 and 7 and 11
[1]; 5 mg/kg IV QODx3, day 11
  Clinical score: 12 and 5 (2×) and 9 (2×) and 4 (2×) and 8 (2×) and 11
[1]; 5 mg/kg IV QODx3, day 12
  Clinical score: 12 and 5 and 10 and 4 (3×) and 8 (3×) and 11
[1]; 10 mg/kg IV QODx3, day 4
  Clinical score: 1 (5×) and 2 (4×) and 3
[1]; 10 mg/kg IV QODx3, day 5
  Clinical score: 2 (6×) and 3 (4×)
[1]; 10 mg/kg IV QODx3, day 6
  Clinical score: 4 (2×) and 5 (2×) and 3 (4×) and 6 and 2
[1]; 10 mg/kg IV QODx3, day 7
  Clinical score: 4 (3×) and 5 (4×) and 7 and 6 (2×)
[1]; 10 mg/kg IV QODx3, day 10
  Clinical score: 5 (2×) and 8 (3×) and 6 and 7 (3×) and 4
[1]; 10 mg/kg IV QODx3, day 11
  Clinical score: 5 (3×) and 8 (3×) and 6 and 3 and 7 (2×)
[1]; 10 mg/kg IV QODx3, day 12
  Clinical score: 5 (3×) and 8 and 9 (2×) and 6 and 3 and 7 (2×)
[1]; 20 mg/kg IV QODx3, day 4
  Clinical score: 3
[1]; 20 mg/kg IV QODx3, day 5
  Clinical score: 2 (7×) and 1 (5×) and 3 (3×)
[1]; 20 mg/kg IV QODx3, day 6
  Clinical score: 5 (2×) and 4 (2×) and 1 and 2 (4×) and 3 (5×) and 0
[1]; 20 mg/kg IV QODx3, day 7
  Clinical score: 8 and 6 (3×) and 1 and 3 (2×) and 4 (4×) and 0 and 5 (2×) and 2
[1]; 20 mg/kg IV QODx3, day 10
  Clinical score: 7 (2×) and 1 (2×) and 4 (3×) and 5 (2×) and 0 and 3 and 8
[1]; 20 mg/kg IV QODx3, day 11
  Clinical score: 7 (2×) and 2 and 4 (4×) and 5 and 0 and 3 and 8 and 1
[1]; 20 mg/kg IV QODx3, day 12
  Clinical score: 7 (2×) and 1 (2×) and 3 (2×) and 4 (3×) and 5 and 0 and 8
[1]; 20 mg/kg IV QW, day 4
  Clinical score: 1 (4×) and 2 (5×) and 3
[1]; 20 mg/kg IV QW, day 5
  Clinical score: 1 (3×) and 3 and 2 (6×)
[1]; 20 mg/kg IV QW, day 6
  Clinical score: 1 and 2 and 6 and 5 (3×) and 3 and 4 (3×)
[1]; 20 mg/kg IV QW, day 7
  Clinical score: 1 and 3 and 7 and 6 (4×) and 4 and 5 (2×)
[1]; 20 mg/kg IV QW, day 10
  Clinical score: 2 and 4 and 9 (3×) and 7 (2×) and 6 (2×) and 8
[1]; 20 mg/kg IV QW, day 11
  Clinical score: 0 and 4 and 8 (2×) and 6 (3×) and 7 (2×) and 5
[1]; 20 mg/kg IV QW, day 12
  Clinical score: 0 and 3 and 9 and 6 (3×) and 7 and 8 (2×) and 4

## CCn1cc(C[C@H]2C(=O)N[C@@H](CC(C)C)C(=O)N(C)[C@@H](C)C(=O)O[C@H](CCC#N)C(=O)N[C@@H](CC(F)(F)F)C(=O)N(C)[C@@H](CC(C)C)C(=O)N[C@@H](CC(F)(F)F)C(=O)N2C)c2ccccc21 [KZR-0509508] (cyclo(L[NMeA][Butanoyl(2R-oxy,4-CN)][Abu(4,4,4-F3)][NMeL][Abu(4,4,4-F3)][X3]))
Sec61; HER3, Concentration 1.6
  GLuc reporter raw signal (replicates): 2847100 and 2861900 and 2946000
Sec61; HER3, Concentration 8
  GLuc reporter raw signal (replicates): 2749300 and 2978800 and 2982800
Sec61; IL2, Concentration 1.6
  GLuc reporter raw signal (replicates): 2678300 and 2698800 and 2606600
Sec61; PD1, Concentration 1.6
  GLuc reporter raw signal (replicates): 1143400 and 1043200 and 1112200
Sec61; Prolactin, Concentration 1.6
  GLuc reporter raw signal (replicates): 8721400 and 8252800 and 8499000
Sec61; TNFa, Concentration 1.6
  GLuc reporter raw signal (replicates): 167830 and 162480 and 155660
Sec61; TNFa, Concentration 8
  GLuc reporter raw signal (replicates): 163990 and 157990
